Assay results from doi:10.1101/2022.10.27.514040.
These are yes or no findings as the source states them, for the method shown. For some assays here: In cells and extracts the contact can be indirect. Some results given as binding are weak or reduced against the parent protein; the word gives no strength. For some assays here: Sequences can lack the tags named with a protein.

T1: BIN4, Topoisomerase VI subunit, full-length cDNA as yeast two-hybrid bait (Arabidopsis thaliana) (UniProt Q9FLU1)
T1 sequence: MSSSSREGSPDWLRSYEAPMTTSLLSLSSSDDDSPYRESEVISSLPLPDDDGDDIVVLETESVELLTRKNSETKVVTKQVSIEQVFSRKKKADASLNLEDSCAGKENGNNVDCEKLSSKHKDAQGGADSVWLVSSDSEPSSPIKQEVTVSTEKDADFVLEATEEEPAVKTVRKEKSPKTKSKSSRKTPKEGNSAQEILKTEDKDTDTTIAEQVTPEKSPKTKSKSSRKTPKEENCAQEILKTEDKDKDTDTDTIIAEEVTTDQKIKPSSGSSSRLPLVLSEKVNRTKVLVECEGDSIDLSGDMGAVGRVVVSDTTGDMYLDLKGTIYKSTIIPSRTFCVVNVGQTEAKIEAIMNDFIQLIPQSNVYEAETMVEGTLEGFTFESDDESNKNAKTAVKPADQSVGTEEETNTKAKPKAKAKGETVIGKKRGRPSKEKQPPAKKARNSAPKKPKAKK

T2: BIN4-cYFP (Arabidopsis thaliana) (UniProt Q9FLU1)
T2 sequence: T1 sequence

B1: SMC3 193-807, yeast two-hybrid prey clone pB27A-36 (domain or fragment, UniProt Q56YN8 193-807)
chain: VHYLDERLRELDEEKEELRKYQQLDKQRKSLEYTIYDKELHDAREKLEQVEVARTKASEESTKMYDRVEKAQDDSKSLDESLKELTKELQTLYKEKETVEAQQTKALKKKTKLELDVKDFQDRITGNIQSKNDALEQLNTVEREMQDSLRELEAIKPLYESQVDKENQTSKRINELEKTLSILYQKQGRATQFSNKAARDKWLRKEIEDLKRVLDSNTVQEQKLQDEILRLNTDLTERDEHIKKHEVEIGELESRISKSHELFNTKKRERDEEQRKRKEKWGEESQLSSEIDKLKTELERAKKNLDHATPGDVRRGLNSIRRICADYRINGVFGPLVELVDCDEKFFTAVEVTAGNSLFNVVVENDDISTKIIRHLNSLKGGRVTFLPLNRIKAPRVNYPKDSDAIPLLKKLKFDSKFEPALGQVFGRTVVCRDLNVATRVAKNDDLDCITMEGDQVSRKGGMTGGFYDHRRSKLRFMNIIMQNTKSINEKEKELEDVRRQLQVIDQQITQLVTEQQRLEADWTLCKLQVEQLKQEIANANKQKHAIHKAIEYKEKLLGDIRTRIDQVRSSMSMKEAEMGTELVDHLTPEEREQLSKLNPEIKDLKEKKFAYQAD
B2: NLS-SMC3(193-807)-nYFP (domain or fragment, UniProt Q56YN8 193-807)
chain: B1 chain
B3: NLS-SMC3(602-807)-nYFP (domain or fragment, UniProt Q56YN8 602-807)
chain: KKLKFDSKFEPALGQVFGRTVVCRDLNVATRVAKNDDLDCITMEGDQVSRKGGMTGGFYDHRRSKLRFMNIIMQNTKSINEKEKELEDVRRQLQVIDQQITQLVTEQQRLEADWTLCKLQVEQLKQEIANANKQKHAIHKAIEYKEKLLGDIRTRIDQVRSSMSMKEAEMGTELVDHLTPEEREQLSKLNPEIKDLKEKKFAYQAD
B4: NLS-SMC3(193-555)-nYFP (domain or fragment, UniProt Q56YN8 193-555)
chain: VHYLDERLRELDEEKEELRKYQQLDKQRKSLEYTIYDKELHDAREKLEQVEVARTKASEESTKMYDRVEKAQDDSKSLDESLKELTKELQTLYKEKETVEAQQTKALKKKTKLELDVKDFQDRITGNIQSKNDALEQLNTVEREMQDSLRELEAIKPLYESQVDKENQTSKRINELEKTLSILYQKQGRATQFSNKAARDKWLRKEIEDLKRVLDSNTVQEQKLQDEILRLNTDLTERDEHIKKHEVEIGELESRISKSHELFNTKKRERDEEQRKRKEKWGEESQLSSEIDKLKTELERAKKNLDHATPGDVRRGLNSIRRICADYRINGVFGPLVELVDCDEKFFTAVEVTAGNSLFNVVV
B5: NLS-SMC3(193-807, Δ525-632)-nYFP (domain or fragment, UniProt Q56YN8)
chain: VHYLDERLRELDEEKEELRKYQQLDKQRKSLEYTIYDKELHDAREKLEQVEVARTKASEESTKMYDRVEKAQDDSKSLDESLKELTKELQTLYKEKETVEAQQTKALKKKTKLELDVKDFQDRITGNIQSKNDALEQLNTVEREMQDSLRELEAIKPLYESQVDKENQTSKRINELEKTLSILYQKQGRATQFSNKAARDKWLRKEIEDLKRVLDSNTVQEQKLQDEILRLNTDLTERDEHIKKHEVEIGELESRISKSHELFNTKKRERDEEQRKRKEKWGEESQLSSEIDKLKTELERAKKNLDHATPGDVRRGLNSIRRICADYRINGVVAKNDDLDCITMEGDQVSRKGGMTGGFYDHRRSKLRFMNIIMQNTKSINEKEKELEDVRRQLQVIDQQITQLVTEQQRLEADWTLCKLQVEQLKQEIANANKQKHAIHKAIEYKEKLLGDIRTRIDQVRSSMSMKEAEMGTELVDHLTPEEREQLSKLNPEIKDLKEKKFAYQAD

Assays:
[1] = target: T1, BIN4, Topoisomerase VI subunit, full-length cDNA as yeast two-hybrid bait (Arabidopsis thaliana); test: two-hybrid
[2] = target: T2, BIN4-cYFP (Arabidopsis thaliana); test: split reporter

Binder	binding [1]	binding [2]
B1	binds	–
B2	–	binds
B3	–	binds weakly
B4	–	binds weakly
B5	–	no binding
